Further values from the same series stand in other lists.
System: L. acidophilus NCFM
Test: RNA-seq transcriptional analysis of L. acidophilus NCFM growing on plant glycosides
Format: cell-based, Lactobacillus acidophilus
[1] = LBA0160 Anaerobic ribonucleoside triphosphate reductase, COG F
[2] = LBA0197 Oligopeptide binding protein, COG E
[3] = LBA0198 Peptide binding protein, COG E
[4] = LBA0225 6-p-beta-glucosidase, COG G
[5] = LBA0227 Celiohiose-specific PTS IIC, COG G
[6] = LBA0228 Transcriptional regulator, COG G
[7] = LBA0455 Mannose-specific PTS system component IIC, COG G
[8] = LBA0456 Mannose-specific PTS system component IID, COG G
[9] = LBA0491 Cellobiose-specific PTS IIC, COG G
[10] = LBA0503 ABC transporter permease, COG G
[11] = LBA0606 PTS system arbutin-like IIBC component, COG G
[12] = LBA0609 PTS enzyme II ABC component, COG G
[13] = LBA0680 Glycogen branching enzyme, COG G
[14] = LBA0681 Glucose-1-phosphate adenylyltransferase, COG G
[15] = LBA0682 Glucose-1-phosphate adenylyltransferase, COG G
[16] = LBA0683 Glycogen synthase, COG G
[17] = LBA0685 Glycogen phosphorylase, COG G
[18] = LBA0686 Amylopullulanase, COG G
[19] = LBA0687 Phosphoglucomutase, COG G
[20] = LBA0724 Transcription antiterminator, COG G
[21] = LBA0726 Phospho-beta-galactosidase II, COG G
[22] = LBA0874 Phospho-beta-galactosidase I, COG G
[23] = LBA0875 Transcriptional regulator, COG G
[24] = LBA0876 Cellobiose-specific PTS IIC, COG G
[25] = LBA0877 Cellobiose-specific PTS IIA, COG G
[26] = LBA0986 Galactose mutarotase related ensyme, COG G
[27] = LBA1102 Transmembrane protein, COG G
[28] = LBA1400 Oligopeptide ABC transporter substrate binding protein, COG E
[29] = LBA1433 Dihydroxyacetone kinase, COG G
[30] = LBA1434 Dihydroxyacetone kinase, COG G

Structure (SMILES): O=c1ccc2cc(O[C@@H]3O[C@H](CO)[C@@H](O)[C@H](O)[C@H]3O)c(O)cc2o1 [Esculin]
- Log2 differential normalized TPM ratio compared to glucose (LBA0146 PTS system HA, COG G): 1.3
- Log2 differential normalized TPM ratio compared to lactose (LBA0146 PTS system HA, COG G): −0.3
- Transcripts per million (rpm) (LBA0146 PTS system HA, COG G): 20.2 rpm
- Log2 differential normalized TPM ratio compared to glucose [1]: −0.3
- Log2 differential normalized TPM ratio compared to lactose [1]: −1.2
- Transcripts per million (rpm) [1]: 146 rpm
- Log2 differential normalized TPM ratio compared to glucose [2]: 0.9
- Log2 differential normalized TPM ratio compared to lactose [2]: 3.1
- Transcripts per million (rpm) [2]: 126.9 rpm
- Log2 differential normalized TPM ratio compared to glucose [3]: 0.2
- Log2 differential normalized TPM ratio compared to lactose [3]: 3.2
- Transcripts per million (rpm) [3]: 50.6 rpm
- Log2 differential normalized TPM ratio compared to glucose [4]: −0.2
- Log2 differential normalized TPM ratio compared to lactose [4]: 0.1
- Transcripts per million (rpm) [4]: 24.4 rpm
- Log2 differential normalized TPM ratio compared to glucose [5]: 0.8
- Log2 differential normalized TPM ratio compared to lactose [5]: 0.5
- Transcripts per million (rpm) [5]: 6.5 rpm
- Log2 differential normalized TPM ratio compared to glucose [6]: 0.9
- Log2 differential normalized TPM ratio compared to lactose [6]: 0.8
- Transcripts per million (rpm) [6]: 27.3 rpm
- Log2 differential normalized TPM ratio compared to glucose [7]: 2.3
- Log2 differential normalized TPM ratio compared to lactose [7]: 1.2
- Transcripts per million (rpm) [7]: 1425.6 rpm
- Log2 differential normalized TPM ratio compared to glucose [8]: 2.3
- Log2 differential normalized TPM ratio compared to lactose [8]: 1.2
- Transcripts per million (rpm) [8]: 2482.1 rpm
- Log2 differential normalized TPM ratio compared to glucose [9]: 3.4
- Log2 differential normalized TPM ratio compared to lactose [9]: 1.3
- Transcripts per million (rpm) [9]: 81.2 rpm
- Log2 differential normalized TPM ratio compared to glucose [10]: 2.4
- Log2 differential normalized TPM ratio compared to lactose [10]: 1.2
- Transcripts per million (rpm) [10]: 17.4 rpm
- Log2 differential normalized TPM ratio compared to glucose (LBA0505 Fructosidase, COG G): 2.2
- Log2 differential normalized TPM ratio compared to lactose (LBA0505 Fructosidase, COG G): 1.3
- Transcripts per million (rpm) (LBA0505 Fructosidase, COG G): 17.1 rpm
- Log2 differential normalized TPM ratio compared to glucose [11]: 2.8
- Log2 differential normalized TPM ratio compared to lactose [11]: 0.5
- Transcripts per million (rpm) [11]: 30.7 rpm
- Log2 differential normalized TPM ratio compared to glucose [12]: 2.8
- Log2 differential normalized TPM ratio compared to lactose [12]: 1.2
- Transcripts per million (rpm) [12]: 370.1 rpm
- Log2 differential normalized TPM ratio compared to glucose [13]: 1.3
- Log2 differential normalized TPM ratio compared to lactose [13]: 0.3
- Transcripts per million (rpm) [13]: 168.7 rpm
- Log2 differential normalized TPM ratio compared to glucose [14]: 2.4
- Log2 differential normalized TPM ratio compared to lactose [14]: 0.6
- Transcripts per million (rpm) [14]: 226.7 rpm
- Log2 differential normalized TPM ratio compared to glucose [15]: 2.4
- Log2 differential normalized TPM ratio compared to lactose [15]: 0.6
- Transcripts per million (rpm) [15]: 280.1 rpm
- Log2 differential normalized TPM ratio compared to glucose [16]: 2.5
- Log2 differential normalized TPM ratio compared to lactose [16]: 0.6
- Transcripts per million (rpm) [16]: 356.1 rpm
- Log2 differential normalized TPM ratio compared to glucose [17]: 2.7
- Log2 differential normalized TPM ratio compared to lactose [17]: 0.8
- Transcripts per million (rpm) [17]: 412 rpm
- Log2 differential normalized TPM ratio compared to glucose [18]: 2.8
- Log2 differential normalized TPM ratio compared to lactose [18]: 1
- Transcripts per million (rpm) [18]: 472.5 rpm
- Log2 differential normalized TPM ratio compared to glucose [19]: 2.1
- Log2 differential normalized TPM ratio compared to lactose [19]: 0.3
- Transcripts per million (rpm) [19]: 532.6 rpm
- Log2 differential normalized TPM ratio compared to glucose [20]: 5.5
- Log2 differential normalized TPM ratio compared to lactose [20]: 3.6
- Transcripts per million (rpm) [20]: 1362.9 rpm
- Log2 differential normalized TPM ratio compared to glucose (LBA0725 PTS EII system, COG G): 9.8
- Log2 differential normalized TPM ratio compared to lactose (LBA0725 PTS EII system, COG G): 7.1
- Transcripts per million (rpm) (LBA0725 PTS EII system, COG G): 1673.1 rpm
- Log2 differential normalized TPM ratio compared to glucose [21]: 6.9
- Log2 differential normalized TPM ratio compared to lactose [21]: 4.2
- Transcripts per million (rpm) [21]: 2576.8 rpm
- Log2 differential normalized TPM ratio compared to glucose [22]: 1.7
- Log2 differential normalized TPM ratio compared to lactose [22]: 0.5
- Transcripts per million (rpm) [22]: 49.2 rpm
- Log2 differential normalized TPM ratio compared to glucose [23]: 1.3
- Log2 differential normalized TPM ratio compared to lactose [23]: 0.9
- Transcripts per million (rpm) [23]: 31.2 rpm
- Log2 differential normalized TPM ratio compared to glucose [24]: 2.9
- Log2 differential normalized TPM ratio compared to lactose [24]: 0
- Transcripts per million (rpm) [24]: 776.8 rpm
- Log2 differential normalized TPM ratio compared to glucose [25]: 3
- Log2 differential normalized TPM ratio compared to lactose [25]: −0.1
- Transcripts per million (rpm) [25]: 501.6 rpm
- Log2 differential normalized TPM ratio compared to glucose (LBA0911 Aminopeptidase, COG E): 2.7
- Log2 differential normalized TPM ratio compared to lactose (LBA0911 Aminopeptidase, COG E): 1.6
- Transcripts per million (rpm) (LBA0911 Aminopeptidase, COG E): 1141.5 rpm
- Log2 differential normalized TPM ratio compared to glucose [26]: 2
- Log2 differential normalized TPM ratio compared to lactose [26]: 1.4
- Transcripts per million (rpm) [26]: 379.4 rpm
- Log2 differential normalized TPM ratio compared to glucose (LBA1022 Arginase, COG E): 2.3
- Log2 differential normalized TPM ratio compared to lactose (LBA1022 Arginase, COG E): 2.1
- Transcripts per million (rpm) (LBA1022 Arginase, COG E): 1342.6 rpm
- Log2 differential normalized TPM ratio compared to glucose (LBA1055 Mutator protein, COG F): −1.4
- Log2 differential normalized TPM ratio compared to lactose (LBA1055 Mutator protein, COG F): −1.1
- Transcripts per million (rpm) (LBA1055 Mutator protein, COG F): 5.8 rpm
- Log2 differential normalized TPM ratio compared to glucose [27]: 2.6
- Log2 differential normalized TPM ratio compared to lactose [27]: 1.3
- Transcripts per million (rpm) [27]: 226.4 rpm
- Log2 differential normalized TPM ratio compared to glucose [28]: −1.1
- Log2 differential normalized TPM ratio compared to lactose [28]: −2.1
- Transcripts per million (rpm) [28]: 5.2 rpm
- Log2 differential normalized TPM ratio compared to glucose [29]: 3.7
- Log2 differential normalized TPM ratio compared to lactose [29]: 1.1
- Transcripts per million (rpm) [29]: 80.6 rpm
- Log2 differential normalized TPM ratio compared to glucose [30]: 4.5
- Log2 differential normalized TPM ratio compared to lactose [30]: 1.2
- Transcripts per million (rpm) [30]: 85.7 rpm
